From patent US20240252671A1 (priority 2021, published 2024) come the findings set out here.

This data set is described as follows: peptide synthesis. The conditions noted are these: late stage modification step, TFA salt.

With “(2S)-2-[2-(2-aminoacetamido)acetamido]-N-([[(2-[2-chloro-4-[([[2-(2,6-dioxopiperidin-3-yl)-1-oxo-3H-isoindol-5-yl]methyl]carbamoyl)amino]phenyl]ethoxy)methyl]-carbamoyl]methyl)-3-phenylpropanamide; trifluoroacetic acid”, the step yield turned out to be 79%.
